Test results as given in patent US8613929B2, “Methods and compositions for targeting agents into and across the blood-brain barrier and other endothelial cell microvascular barriers” (priority 2003, dated 2013).
At least one compound was matched to its structure with a doubt left.

Protein sequences, listed by entry. Tags and fused reporters are not part of them. Residues count along the entry.
UniProt E1BIN8, 24-208 limits assumed: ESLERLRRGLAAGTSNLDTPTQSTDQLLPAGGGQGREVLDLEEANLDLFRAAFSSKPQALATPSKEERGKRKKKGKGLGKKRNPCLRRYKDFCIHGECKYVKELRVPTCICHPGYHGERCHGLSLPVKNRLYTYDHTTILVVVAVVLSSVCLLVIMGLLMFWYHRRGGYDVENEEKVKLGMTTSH

Target: LPSS14 (DTR) (Bos taurus, UniProt E1BIN8)
Type: cell-based, bovine
Conditions: pretreatment: CRM197 5 microgram/ml 1 h; heparin 125 microgram/ml 1 h; LPS 1 microgram/ml 2 h; BB94 10 micromolar 1 h (FIG. 8-10)

CNC(=O)[C@H](Cc1ccccc1)NC(=O)[C@H](CC(C)C)[C@H](CSc1cccs1)C(=O)NO [BB94, batimastat]
toxic effect after apical exposure to 100 ng/ml DT on pretreated BCEC: moderately increased
